The record followed here is patent US8809498B2 (priority 2008, dated 2014).

The data set in a line: general procedure: Fmoc solid-phase peptide synthesis; 2-Cl-tritylchloride resin. The note with it: whole synthesis; for isolated yield: total yield after purification, scale of the general procedure 0.1 mmol.
Setting [1] is: TFA salt (Lys, Orn, Dab, Arg peptides).

As for (N-Iva-Phe)-Nle-Sta-Lys-Sta, under “TFA salt”, the isolated mass is listed as 32 mg and the isolated yield worked out at 34.8%.

In the case of (N-Iva-Val)-TfeGly-Sta-Ala-Sta, under setting [1], the isolated mass is on record as 31.0 mg and the isolated yield was found to be 42.7%.

(N-Iva-Val)-DfpGly-Sta-Ala-Sta: under setting [1], the isolated mass worked out at 28.1 mg and the isolated yield entry is listed as “˜39.0%”.
